The source of these data is publication PMC12886896.

Sequences of proteins named here, by UniProt entry; tags and fusion partners are left off. A change or cut given only in a name is not applied to a line headed by its entry.
UniProt Q9U2G8: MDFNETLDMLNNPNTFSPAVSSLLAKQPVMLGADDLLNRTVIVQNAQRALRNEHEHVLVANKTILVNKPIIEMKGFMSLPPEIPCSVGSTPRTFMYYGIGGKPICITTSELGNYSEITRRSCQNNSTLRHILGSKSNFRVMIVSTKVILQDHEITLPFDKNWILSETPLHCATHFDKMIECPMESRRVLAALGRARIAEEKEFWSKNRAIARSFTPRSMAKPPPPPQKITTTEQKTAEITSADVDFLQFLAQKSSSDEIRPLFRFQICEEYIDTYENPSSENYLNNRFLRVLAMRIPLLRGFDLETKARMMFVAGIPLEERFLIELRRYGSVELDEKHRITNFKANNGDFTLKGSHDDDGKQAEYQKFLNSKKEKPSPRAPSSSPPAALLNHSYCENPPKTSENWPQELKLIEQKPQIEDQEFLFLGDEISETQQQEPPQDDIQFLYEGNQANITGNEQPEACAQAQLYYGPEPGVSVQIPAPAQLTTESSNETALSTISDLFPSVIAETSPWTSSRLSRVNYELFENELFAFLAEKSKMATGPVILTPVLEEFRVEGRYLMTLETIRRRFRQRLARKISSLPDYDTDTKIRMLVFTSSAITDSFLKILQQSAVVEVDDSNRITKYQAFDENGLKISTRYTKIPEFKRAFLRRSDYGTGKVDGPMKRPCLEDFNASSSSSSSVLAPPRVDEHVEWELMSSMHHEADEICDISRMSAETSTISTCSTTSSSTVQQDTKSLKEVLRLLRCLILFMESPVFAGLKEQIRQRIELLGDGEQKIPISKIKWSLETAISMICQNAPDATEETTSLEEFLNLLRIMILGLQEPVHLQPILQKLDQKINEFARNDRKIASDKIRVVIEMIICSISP

Assay in all cases: pull-down; GST-tagged proteins immobilised on GST beads, incubated with MBP-tagged proteins in 20 mM Tris-HCl pH 7.5, 150 mM KCl, 2 mM MgCl2, 1 mM DTT, 0.01% Triton-X 100, 5% glycerol, room temperature 1 h; 10 washes; Western blot with anti-MBP; both purified
Assay [1] deals with GST-tagged full-length SET-24 (C. elegans) (UniProt Q9U2G8).
Assay [2] addresses GST-tagged SET-24 fragment S8 (fragment S5 with the SET domain deleted in-frame) (C. elegans).
The target of assay [3] is GST-tagged SET-24 fragment S7 (SET domain alone) (C. elegans).

No constants are given. Whether binding was seen depends on the method and setting. Binding can be weak; no strength is given. Sequences can lack the tags named with a protein.

B1: MBP-tagged C-terminal fragment of HCF-1 (379–782aa) (domain or fragment, UniProt G5EC23 379-782)
chain: PEQPGKVQLGRAGFNSLEISWPIVQGASGYFLQIGFGDAKEQSVSPIKRATTSPRKQPSIVPPSQKETEQSPKKPQGTAPSIISTQGTTYTAPADPKPATDEGGLPQDLFEDTEKNETASPKRSNDAQSADSSTCEQKKTDESGLEEDSEKDQKPSDAGETDEMKEENGDDDLPWFDVGIIDKATINVTHYFNDRQQSLEKQLNDLIDHNAFKCVNDSVFTTEDKIPLINGQSYRFRVSAINGLGKGAWSETASCKTCVPGYPSAPSSIRITKSHEGAQLTWEPPSNTNISGKIIEYSVYLAVKNQSANSADSQLAFMRVYCGPQADCQVLQSNLGTAFVDQTNKPAIIFRIAARNEKGYGPATQVRWLQDQQKIPVRTNYPNNSGFIYQQHGGQQKRARFDHQ
On to B1, for which the binding entry in assay [1] is listed as “no binding”.

B2: MBP-tagged full-length HCF-1 (protein, UniProt G5EC23 1-782)
chain: MDEDVGLEATNYSRGDESRSEEQEKNVVRWRIVQQSTGPNPKPRHGHRAVVLKELIVIFGGGNEGMIDELHAYNTQKREWTAPQCCGDVPTPAAAFGAISLGNKIYRFGGMTEYGKYTNDLYELQSTRWEWRRLNPRVHSNGHLPCPRIGHSFVVSQKSQKAYVFGGLSNDLNDPKRNVPHYLDDLYVINLSGPQHLIWEKLNATGPGPISRESHTAVIYEKDSISRMVVYGGMNGVRLGDLWYLNLNTLHWTEIKFDDPRTGIPPMPRSLHSSVLIGDKMFVYGGWVPLLEHASTEQQTEKEWKCTSSLGCWNITEDRWVPLHLYCSDEDTIPRGRAGHCAAAVGDRMYIWSGRDGYRKAWSNQVCCRDMWLLDTILPEQPGKVQLGRAGFNSLEISWPIVQGASGYFLQIGFGDAKEQSVSPIKRATTSPRKQPSIVPPSQKETEQSPKKPQGTAPSIISTQGTTYTAPADPKPATDEGGLPQDLFEDTEKNETASPKRSNDAQSADSSTCEQKKTDESGLEEDSEKDQKPSDAGETDEMKEENGDDDLPWFDVGIIDKATINVTHYFNDRQQSLEKQLNDLIDHNAFKCVNDSVFTTEDKIPLINGQSYRFRVSAINGLGKGAWSETASCKTCVPGYPSAPSSIRITKSHEGAQLTWEPPSNTNISGKIIEYSVYLAVKNQSANSADSQLAFMRVYCGPQADCQVLQSNLGTAFVDQTNKPAIIFRIAARNEKGYGPATQVRWLQDQQKIPVRTNYPNNSGFIYQQHGGQQKRARFDHQ
As to B2, the binding result in assay [1] is listed as “binds”.

B3: MBP-tagged H1 N-terminal fragment of HCF-1 (1-378aa) (domain or fragment, UniProt G5EC23 1-378)
chain: MDEDVGLEATNYSRGDESRSEEQEKNVVRWRIVQQSTGPNPKPRHGHRAVVLKELIVIFGGGNEGMIDELHAYNTQKREWTAPQCCGDVPTPAAAFGAISLGNKIYRFGGMTEYGKYTNDLYELQSTRWEWRRLNPRVHSNGHLPCPRIGHSFVVSQKSQKAYVFGGLSNDLNDPKRNVPHYLDDLYVINLSGPQHLIWEKLNATGPGPISRESHTAVIYEKDSISRMVVYGGMNGVRLGDLWYLNLNTLHWTEIKFDDPRTGIPPMPRSLHSSVLIGDKMFVYGGWVPLLEHASTEQQTEKEWKCTSSLGCWNITEDRWVPLHLYCSDEDTIPRGRAGHCAAAVGDRMYIWSGRDGYRKAWSNQVCCRDMWLLDTIL
In the case of B3, the binding result in assay [2], in assay [1] and in assay [3] was “binds” in each case.
